Values quoted from earlier work as cited in paper PMC8557888, “Intracellular Accumulation of Novel and Clinically Used TB Drugs Potentiates Intracellular Synergy” (Microbiology Spectrum, 2021).

Conditions: cited from earlier work

SMILES: O=C(O)c1cn(C2CC2)c2cc(N3CCNCC3)c(F)cc2c1=O [ciprofloxacin]
- log ratio ELF/plasma: −0.2
